Measurements reported in article PMC10528058.
These are yes or no findings as the source states them, for the method shown. In cells and extracts the contact can be indirect. A yes stands for co-enrichment or nearness to the bait. Other partners may have been found.

Amino acid sequences for entries named in this document (tags omitted). Residues count along the entry.
UniProt P01027, residues 25-1663: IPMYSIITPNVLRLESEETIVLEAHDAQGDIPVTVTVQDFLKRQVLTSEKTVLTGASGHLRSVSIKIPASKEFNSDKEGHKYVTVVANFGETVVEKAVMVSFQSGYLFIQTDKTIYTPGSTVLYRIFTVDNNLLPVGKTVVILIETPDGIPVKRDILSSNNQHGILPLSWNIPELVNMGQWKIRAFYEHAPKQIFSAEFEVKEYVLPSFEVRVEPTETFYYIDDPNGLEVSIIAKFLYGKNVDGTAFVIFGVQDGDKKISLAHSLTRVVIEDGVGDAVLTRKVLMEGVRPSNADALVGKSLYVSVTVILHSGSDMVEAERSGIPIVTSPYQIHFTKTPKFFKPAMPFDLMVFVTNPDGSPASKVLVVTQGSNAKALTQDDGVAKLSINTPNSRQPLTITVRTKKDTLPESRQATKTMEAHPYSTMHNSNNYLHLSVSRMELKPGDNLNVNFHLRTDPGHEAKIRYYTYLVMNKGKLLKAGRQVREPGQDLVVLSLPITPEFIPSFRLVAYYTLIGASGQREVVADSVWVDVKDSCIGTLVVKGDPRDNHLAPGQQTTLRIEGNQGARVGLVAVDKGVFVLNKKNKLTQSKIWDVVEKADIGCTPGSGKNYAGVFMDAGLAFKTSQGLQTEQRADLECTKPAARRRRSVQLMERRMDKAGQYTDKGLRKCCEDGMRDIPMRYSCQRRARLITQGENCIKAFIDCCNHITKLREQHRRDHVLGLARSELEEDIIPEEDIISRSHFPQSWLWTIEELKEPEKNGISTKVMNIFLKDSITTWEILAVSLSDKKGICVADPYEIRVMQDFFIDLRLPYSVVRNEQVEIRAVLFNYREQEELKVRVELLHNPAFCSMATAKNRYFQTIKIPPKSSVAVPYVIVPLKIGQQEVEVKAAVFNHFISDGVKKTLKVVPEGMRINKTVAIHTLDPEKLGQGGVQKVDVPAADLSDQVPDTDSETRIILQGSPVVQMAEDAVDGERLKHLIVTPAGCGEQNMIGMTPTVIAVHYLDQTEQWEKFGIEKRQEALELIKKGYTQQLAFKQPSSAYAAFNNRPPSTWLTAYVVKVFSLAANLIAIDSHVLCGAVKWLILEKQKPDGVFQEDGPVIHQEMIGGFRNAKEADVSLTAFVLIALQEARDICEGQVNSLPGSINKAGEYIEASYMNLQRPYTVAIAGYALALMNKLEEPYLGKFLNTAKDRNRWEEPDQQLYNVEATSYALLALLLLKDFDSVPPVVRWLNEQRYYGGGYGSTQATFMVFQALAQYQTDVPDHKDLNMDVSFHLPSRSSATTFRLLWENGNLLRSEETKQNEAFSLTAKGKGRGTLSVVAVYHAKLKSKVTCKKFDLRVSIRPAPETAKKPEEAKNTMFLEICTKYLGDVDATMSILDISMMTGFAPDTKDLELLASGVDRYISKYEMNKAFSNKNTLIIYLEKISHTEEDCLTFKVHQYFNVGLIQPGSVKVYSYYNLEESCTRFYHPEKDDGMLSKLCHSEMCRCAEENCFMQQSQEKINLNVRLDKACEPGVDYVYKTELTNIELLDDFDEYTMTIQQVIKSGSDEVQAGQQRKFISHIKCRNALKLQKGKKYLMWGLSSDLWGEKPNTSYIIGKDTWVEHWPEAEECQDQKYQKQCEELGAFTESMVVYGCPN
UniProt P62897: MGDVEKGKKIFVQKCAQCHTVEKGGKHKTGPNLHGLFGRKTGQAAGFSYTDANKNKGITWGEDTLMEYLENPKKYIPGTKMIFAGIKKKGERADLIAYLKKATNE

Target: complement C3 (mouse, in heart lysate or cytosolic fraction of WT mice after I/R) (mouse (endogenous in C57BL/6 heart)) (UniProt P01027)
Assay: affinity purification with mass spectrometry; C3-containing complexes isolated with anti-C3d conjugated Dynabeads from heart lysates of WT and C3-/- mice after 1 h ischemia/3 h reperfusion; trypsin digest, label-free shotgun LC-MS, WT compared with C3-/-

Substance: cytochrome c (mouse, heart) (from UniProt P62897 1-105)
- binding: binds
